# Measured values from article PMC5591878.
# No constants are given. Whether binding was seen depends on the method and setting. Binding seen in cells or lysates may run through a third protein. Binding can be weak; no strength is given. Sequences can lack the tags named with a protein.
# T1: MYC::COT1, COT1 kinase with MYC tag (Neurospora crassa) (UniProt P38679)
# T1 sequence: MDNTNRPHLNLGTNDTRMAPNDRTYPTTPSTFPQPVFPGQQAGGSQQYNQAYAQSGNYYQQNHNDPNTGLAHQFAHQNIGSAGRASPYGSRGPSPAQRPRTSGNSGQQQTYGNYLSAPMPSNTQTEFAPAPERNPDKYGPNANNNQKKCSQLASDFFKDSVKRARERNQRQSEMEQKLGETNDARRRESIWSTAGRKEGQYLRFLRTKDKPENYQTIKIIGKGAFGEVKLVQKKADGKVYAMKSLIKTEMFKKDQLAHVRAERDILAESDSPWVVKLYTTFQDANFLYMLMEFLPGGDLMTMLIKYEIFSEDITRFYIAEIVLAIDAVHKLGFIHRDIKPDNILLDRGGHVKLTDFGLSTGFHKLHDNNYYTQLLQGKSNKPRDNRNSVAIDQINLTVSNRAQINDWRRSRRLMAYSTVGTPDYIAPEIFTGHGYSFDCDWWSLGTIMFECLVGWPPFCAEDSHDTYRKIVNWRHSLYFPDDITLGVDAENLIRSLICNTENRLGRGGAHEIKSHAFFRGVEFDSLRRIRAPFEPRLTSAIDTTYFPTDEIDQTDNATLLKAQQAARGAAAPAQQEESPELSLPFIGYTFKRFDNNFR
# How the values were obtained:
# [1] = molecular target: T1, MYC::COT1, COT1 kinase with MYC tag (Neurospora crassa); assay: co-IP; cleared crude N. crassa mycelial extract incubated 2 h at 4°C with anti-MYC or anti-COT1 antibodies, then with A/G PLUS-Agarose overnight at 4°C; the last two washes with 0.5 M NaCl; western blot with anti-COT1, anti-MYC or anti-GFP antibodies
# [2] = molecular target: B56::GFP, PP2A regulatory subunit B56 fused to GFP (Neurospora crassa); assay: co-IP; crude N. crassa mycelial extract incubated overnight at 4°C with GFP-Trap magnetic beads; the last two washes with 0.5 M NaCl; western blot with anti-MYC antibodies
# [3] = molecular target: RGB1::GFP, PP2A regulatory subunit RGB1 fused to GFP (Neurospora crassa); assay: as above
Molecule,binding [1],binding [2],binding [3]
"RGB1::GFP, PP2A regulatory subunit RGB1 fused to GFP (Neurospora crassa)",binds,,
"B56::GFP, PP2A regulatory subunit B56 fused to GFP (Neurospora crassa)",binds,,
"MYC::COT1, COT1 kinase with MYC tag (enzyme, UniProt P38679 1-598) MDNTNRPHLNLGTNDTRMAPNDRTYPTTPSTFPQPVFPGQQAGGSQQYNQAYAQSGNYYQQNHNDPNTGLAHQFAHQNIGSAGRASPYGSRGPSPAQRPRTSGNSGQQQTYGNYLSAPMPSNTQTEFAPAPERNPDKYGPNANNNQKKCSQLASDFFKDSVKRARERNQRQSEMEQKLGETNDARRRESIWSTAGRKEGQYLRFLRTKDKPENYQTIKIIGKGAFGEVKLVQKKADGKVYAMKSLIKTEMFKKDQLAHVRAERDILAESDSPWVVKLYTTFQDANFLYMLMEFLPGGDLMTMLIKYEIFSEDITRFYIAEIVLAIDAVHKLGFIHRDIKPDNILLDRGGHVKLTDFGLSTGFHKLHDNNYYTQLLQGKSNKPRDNRNSVAIDQINLTVSNRAQINDWRRSRRLMAYSTVGTPDYIAPEIFTGHGYSFDCDWWSLGTIMFECLVGWPPFCAEDSHDTYRKIVNWRHSLYFPDDITLGVDAENLIRSLICNTENRLGRGGAHEIKSHAFFRGVEFDSLRRIRAPFEPRLTSAIDTTYFPTDEIDQTDNATLLKAQQAARGAAAPAQQEESPELSLPFIGYTFKRFDNNFR",,binds weakly,binds
